No constants are given. Whether binding was seen depends on the method and setting. In cells and extracts the contact can be indirect. Some entries that bind do so weakly or less than the wild type.
How the values were obtained:
[1] = biological target: T1, RIP140 (endogenous, mouse embryonic fibroblasts) (mouse (endogenous in MEFs)) (UniProt Q8CBD1); test: proximity ligation
T1 sequence: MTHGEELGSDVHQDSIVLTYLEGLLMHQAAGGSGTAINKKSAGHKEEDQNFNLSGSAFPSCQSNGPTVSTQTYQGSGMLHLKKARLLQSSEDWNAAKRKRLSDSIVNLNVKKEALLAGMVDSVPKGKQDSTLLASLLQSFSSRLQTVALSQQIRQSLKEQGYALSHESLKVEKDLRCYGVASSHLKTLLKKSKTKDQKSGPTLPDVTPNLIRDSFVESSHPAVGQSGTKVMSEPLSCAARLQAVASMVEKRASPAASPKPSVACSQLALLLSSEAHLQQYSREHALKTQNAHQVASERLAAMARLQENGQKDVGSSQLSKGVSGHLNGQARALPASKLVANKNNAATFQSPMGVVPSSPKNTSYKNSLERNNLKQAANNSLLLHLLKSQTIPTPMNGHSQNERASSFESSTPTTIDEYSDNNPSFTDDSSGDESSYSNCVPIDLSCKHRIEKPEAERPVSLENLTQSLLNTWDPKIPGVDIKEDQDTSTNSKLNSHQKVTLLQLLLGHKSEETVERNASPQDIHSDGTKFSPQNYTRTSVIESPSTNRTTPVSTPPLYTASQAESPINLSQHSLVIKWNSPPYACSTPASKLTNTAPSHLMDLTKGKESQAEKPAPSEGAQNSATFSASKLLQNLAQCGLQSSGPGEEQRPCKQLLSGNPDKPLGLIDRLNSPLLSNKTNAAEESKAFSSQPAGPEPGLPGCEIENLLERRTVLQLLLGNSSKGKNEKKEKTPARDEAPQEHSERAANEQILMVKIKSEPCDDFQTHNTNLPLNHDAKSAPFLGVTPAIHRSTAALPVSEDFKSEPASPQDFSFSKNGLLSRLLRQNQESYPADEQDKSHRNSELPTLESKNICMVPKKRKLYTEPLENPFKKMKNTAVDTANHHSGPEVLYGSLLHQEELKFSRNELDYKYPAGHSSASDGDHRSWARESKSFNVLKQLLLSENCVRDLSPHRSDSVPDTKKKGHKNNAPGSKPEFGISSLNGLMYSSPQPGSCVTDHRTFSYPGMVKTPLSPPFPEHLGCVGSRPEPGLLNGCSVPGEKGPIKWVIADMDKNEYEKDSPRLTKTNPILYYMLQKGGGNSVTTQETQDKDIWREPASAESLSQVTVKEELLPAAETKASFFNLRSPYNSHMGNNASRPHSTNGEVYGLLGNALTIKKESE

Protein sequences, listed by entry. Tags and fused reporters are not part of them.
UniProt P02340: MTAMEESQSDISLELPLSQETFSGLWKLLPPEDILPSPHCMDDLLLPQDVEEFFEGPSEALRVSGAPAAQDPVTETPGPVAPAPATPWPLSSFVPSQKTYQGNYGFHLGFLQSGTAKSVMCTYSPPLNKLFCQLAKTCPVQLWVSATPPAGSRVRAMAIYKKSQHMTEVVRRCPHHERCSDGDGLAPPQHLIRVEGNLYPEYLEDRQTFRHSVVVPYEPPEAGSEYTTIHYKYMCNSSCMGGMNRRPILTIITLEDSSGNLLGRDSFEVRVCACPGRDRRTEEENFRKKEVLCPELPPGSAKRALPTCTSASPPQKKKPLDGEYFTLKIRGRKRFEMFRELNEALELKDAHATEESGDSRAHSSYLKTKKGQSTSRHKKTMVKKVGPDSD
UniProt P97481: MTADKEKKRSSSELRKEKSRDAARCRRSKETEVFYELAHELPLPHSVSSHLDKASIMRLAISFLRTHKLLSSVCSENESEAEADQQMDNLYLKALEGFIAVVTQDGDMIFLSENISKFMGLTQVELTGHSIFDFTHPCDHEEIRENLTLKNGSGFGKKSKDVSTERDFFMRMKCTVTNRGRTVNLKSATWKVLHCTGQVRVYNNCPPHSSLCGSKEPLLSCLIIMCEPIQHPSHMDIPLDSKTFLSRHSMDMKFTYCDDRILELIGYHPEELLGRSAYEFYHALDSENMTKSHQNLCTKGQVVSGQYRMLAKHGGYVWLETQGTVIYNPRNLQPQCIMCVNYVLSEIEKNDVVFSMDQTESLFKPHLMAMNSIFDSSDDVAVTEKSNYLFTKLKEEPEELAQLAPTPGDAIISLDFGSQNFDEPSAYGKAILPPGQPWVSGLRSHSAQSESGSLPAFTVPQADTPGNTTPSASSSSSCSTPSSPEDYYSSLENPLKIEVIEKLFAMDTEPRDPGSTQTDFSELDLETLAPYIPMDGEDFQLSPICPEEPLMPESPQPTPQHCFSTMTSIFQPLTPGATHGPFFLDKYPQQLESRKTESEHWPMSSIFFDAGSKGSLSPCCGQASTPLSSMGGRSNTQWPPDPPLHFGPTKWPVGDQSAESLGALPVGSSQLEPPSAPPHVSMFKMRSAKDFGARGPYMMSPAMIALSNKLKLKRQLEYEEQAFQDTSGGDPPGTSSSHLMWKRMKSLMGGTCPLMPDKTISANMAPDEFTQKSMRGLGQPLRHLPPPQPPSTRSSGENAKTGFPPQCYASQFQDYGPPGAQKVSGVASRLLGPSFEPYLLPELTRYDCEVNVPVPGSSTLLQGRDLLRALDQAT

[2] = biological target: p53 (endogenous, mouse embryonic fibroblasts) (mouse (endogenous in MEFs)) (UniProt P02340); test: proximity ligation

binding [1] | binding [2] | Substance
binds | binds | HIF-2α (endogenous, mouse embryonic fibroblasts) (from UniProt P97481 1-874)
binds |  | p53 (endogenous, mouse embryonic fibroblasts) (from UniProt P02340 1-390)

— paper doi:10.1101/2020.07.30.228759
